Measured values: publication PMC12930380, “Overcoming Ligand Discovery Challenges: Developing Peptide-Based Tracers for SPSB2” (ACS Chemical Biology, 2025)
No constants are given. Whether binding was seen depends on the method and setting. Binding seen in cells or lysates may run through a third protein. Some results given as binding are weak or reduced against the parent protein; the word gives no strength. Sequences can lack the tags named with a protein.

Columns and labels:
[1] = molecular target: T1, C-terminally Nanoluc-tagged human full length SPSB2 (human) (UniProt Q99619); test: FRET or BRET; NanoBRET displacement; 6 nM to 50 μM cyclic TAT peptide against 20 nM (repeats also 30 nM) cyclic TAT tracer in HCT116 cells transfected with SPSB2-NanoLuc and permeabilized with 25 μM digitonin; only the binder purified
T1 sequence: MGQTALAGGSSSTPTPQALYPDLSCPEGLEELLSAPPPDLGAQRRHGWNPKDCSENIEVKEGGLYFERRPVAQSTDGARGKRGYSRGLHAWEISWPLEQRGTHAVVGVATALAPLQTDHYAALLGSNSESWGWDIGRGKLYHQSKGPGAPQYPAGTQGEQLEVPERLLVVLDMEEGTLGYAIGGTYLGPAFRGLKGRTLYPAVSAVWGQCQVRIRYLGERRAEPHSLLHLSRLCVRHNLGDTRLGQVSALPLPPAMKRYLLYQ

[2] = molecular target: T1, C-terminally Nanoluc-tagged human full length SPSB2 (human); test: FRET or BRET; NanoBRET displacement; 6 nM to 50 μM cyclic TAT peptide against 20 nM (repeats also 30 nM) cyclic TAT tracer in intact HCT116 cells transfected with SPSB2-NanoLuc; only the binder purified

In the case of CYGRKKRRQRRRCGSGVDINNN (PEG4 on the N-terminus; disulfide bridge flanking the TAT sequence) [cyclic TAT peptide], the binding [1] is reported as “binds” and the binding [2] is reported as “binds”.
